From PubChem BioAssay AID624297 (National Center for Advancing Translational Sciences (NCATS), 2012)
Among all 340,000 compounds or so, about 6,200 (1.8%) were called active. The shares of active, inactive and inconclusive entries below differ from those in the screen. The call rests on the fitted dose curve; in most records, active means well fitted activation curve with a large enough effect; inconclusive means small, poorly fitted or top-dose-only effect; inactive means no such curve, though single readings can be large or run the other way. Potencies of inconclusive entries are doubtful fits and often do not repeat.

Test: A quantitative high throughput screen for small molecules that induce DNA re-replication in SW480 colon adenocarcinoma cells. Further: nearly all actives have a fitted effect of over 55% in size. On re-replication activation: % of control where 0% means no effect.
Settings: Hoechst DNA content imaging, 48 h; re-replication activation: at 46.1 µM (top of the series)
Summary of the method: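 Readout is total intensity of Hoechst-stained nuclei, excited at 405 nm and collected at 500-530 nm. Compound treatment lasted 48 hr at 37 C in 5% CO2 before staining.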
Potency means the concentration at half of the fitted maximal effect.

Row | SMILES | Potency | re-replication activation
1 | O=C(COC(=O)c1ccc(NS(=O)(=O)c2cccs2)cc1O)NCc1ccccc1 | active: 7.31 µM | 
2 | COc1cccc2c3cccc(OC)c3c3[nH]cnc3c12 | inconclusive: 20.6 µM [activator, single point] | 
3 | CCCCCSc1nc2c(cnn2-c2ccc(F)cc2)c(=O)[nH]1 | inconclusive: 25.9 µM [activator, single point] | 
4 | CN(C(=O)CSCC(=O)Nc1ccc(Cl)cc1)C1CCCCC1 |  | inactive: -12.8%
5 | Cc1ccc(C2(C)NC(=O)N(CC(=O)Nc3c(C)n(C)n(-c4ccccc4)c3=O)C2=O)cc1 (centres undefined) | inconclusive: 29.1 µM [activator, single point] | 
6 | COc1ccc(C(=O)C2CCCN(Cc3cc(Cl)ccc3O)C2)c(OC)c1 (centres undefined) |  | inactive: 9.99%
7 | O=C(c1ccccc1-c1nc(-c2ccc(Cl)cc2)no1)N1CCCC1 | inconclusive: 18.4 µM [activator, single point] | 
8 | CC(C)c1nnc(NC(=O)c2cc3cc(Br)ccc3oc2=O)s1 | inconclusive: 6.51 µM [activator, single point] | 
9 | CN(C)CCCSc1nc(-c2ccccc2)nc2c1CCC2 |  | inactive: 0.779%
10 | Cc1nn(-c2ccccc2)c(N)c1N=Nc1ccc(Cl)cc1 | inconclusive: 23.1 µM [activator, single point] | 
11 | Cc1cnccc1CNC(=O)CC1C(=O)NCCN1CC(C)(C)C (centres undefined) |  | inactive: 17.9%
12 | O=C(CN1C(=O)C2C3CC(C(Br)C3Br)C2C1=O)N1CCOCC1 (centres undefined) | inconclusive: 29.1 µM [activator, partial curve, poor fit] | 
13 | COc1cc(NC(=O)c2ccccc2Cl)c2ncccc2c1 |  | inconclusive: 122% [activator]
14 | CCOc1cccc(/C=N/Nc2ccc(S(=O)(=O)N(CC)CC)cn2)c1O | inconclusive: 0.146 µM [activator, full curve, poor fit] | 
15 | CN1C(=O)/C(=C/c2ccccc2F)Sc2ccc(C(=O)NCC3CCCO3)cc21 (centres undefined) | inconclusive: 0.92 µM [activator, full curve, poor fit] | 
16 | CC1CCC(C(C)C)C(OCC(O)CN2CCN(Cc3ccccc3)CC2)C1 (centres undefined) | inconclusive: 29.1 µM [activator, single point] | 
17 | CCc1nnc(NC(=O)c2ccc(S(C)(=O)=O)cc2)s1 | inconclusive: 29.1 µM [activator, single point] | 
18 | O=[N+]([O-])c1ccc(Sc2cc[n+]([O-])c3ccccc23)c([N+](=O)[O-])c1 | active: 0.82 µM | 
19 | Cc1cc(OCC(=O)NC2CC(C)(C)NC(C)(C)C2)c(C)cc1Br | inconclusive: 29.1 µM [activator, single point] | 

Fetched one by one from above:
Row | SMILES | Potency | re-replication activation
18 | O=[N+]([O-])c1ccc(Sc2cc[n+]([O-])c3ccccc23)c([N+](=O)[O-])c1 | active: 0.82 µM | 
10 | Cc1nn(-c2ccccc2)c(N)c1N=Nc1ccc(Cl)cc1 | inconclusive: 23.1 µM [activator, single point] | 
